In paper PMC9928087, “Plasmids manipulate bacterial behaviour through translational regulatory crosstalk”:
Substitutions are numbered along the chain they refer to. For at least one entry, the source does not settle the construct or the ends of the probe. For some of these results: Negatives hold for the conditions tested. For some of these results: At least one verdict was read from the data and is not stated in words by the source. For some of these results: Weaker means in comparison with the reference protein, sequence or condition of that experiment. For some of these results: Tags and fusion partners may be left off the protein sequences shown.

How the values were obtained:
[1] = tested on: T1, RsmQ (Pseudomonas fluorescens SBW25 plasmid pQBR103); assay: SPR; settings: SPR (ReDCaT SA chip, Biacore 8K): 10 mM HEPES, 150 mM NaCl, 3 mM EDTA, 0.05% Tween 20, pH 7.4, 20 C, RsmQ 100 and 1000 nM (Fig 4: 100-1000 nM), recombinant protein, protein details: C-terminal TEV site + 6xHis
T1 sequence (looked up, limits assumed): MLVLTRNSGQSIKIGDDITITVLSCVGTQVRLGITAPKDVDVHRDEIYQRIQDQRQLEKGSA

[2] = target: T2, RsmE (Pseudomonas fluorescens SBW25) (UniProt A0ACA7PAD1); assay: SPR (ReDCaT); settings: 100 nM protein, HBS-EP+ (10 mM HEPES, 150 mM NaCl, 3 mM EDTA, 0.05% v/v Tween 20, pH 7.4), 20 C, Biacore 8K, ReDCaT SA chip, high values mean tight binding, recombinant protein, protein details: His tag (pET28a NdeI/XhoI), counted as no binding
T2 sequence (looked up, limits assumed): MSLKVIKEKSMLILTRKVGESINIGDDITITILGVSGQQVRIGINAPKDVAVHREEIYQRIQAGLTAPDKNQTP

[3] = tested on: T1, RsmQ (Pseudomonas fluorescens SBW25 plasmid pQBR103); assay: SPR (ReDCaT); settings: HBS-EP+ (10 mM HEPES, 150 mM NaCl, 3 mM EDTA, 0.05% v/v Tween 20, pH 7.4), 20 C, Biacore 8K, ReDCaT SA chip, high values mean tight binding, protein details: C-terminal TEV site + 6xHis, counted as no binding
[4] = target: T3, RsmE (Pseudomonas fluorescens SBW25) (UniProt A0ACG8AC87); assay: SPR; settings: 100 nM protein; SPR (ReDCaT SA chip, Biacore 8K): 10 mM HEPES, 150 mM NaCl, 3 mM EDTA, 0.05% Tween 20, pH 7.4, 20 C; RsmQ 100 and 1000 nM (Fig 4: 100-1000 nM); recombinant protein; protein details: His tag (pET28a NdeI/XhoI); folded or branched DNA
T3 sequence (looked up, limits assumed): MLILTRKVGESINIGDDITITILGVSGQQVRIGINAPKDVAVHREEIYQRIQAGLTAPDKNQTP

[5] = tested on: T4, RsmQ H43A (Pseudomonas fluorescens SBW25 plasmid pQBR103); assay: SPR (ReDCaT); settings: 100 nM protein; HBS-EP+ (10 mM HEPES, 150 mM NaCl, 3 mM EDTA, 0.05% v/v Tween 20, pH 7.4), 20 C, Biacore 8K, ReDCaT SA chip; high values mean tight binding; recombinant protein; protein details: C-terminal TEV site + 6xHis; folded or branched DNA; counted as no binding
T4 sequence (looked up, limits assumed): T1 sequence (looked up, limits assumed) with H43A

[6] = tested on: T5, RsmQ R44A (Pseudomonas fluorescens SBW25 plasmid pQBR103); assay: SPR (ReDCaT); settings: 100 nM protein; HBS-EP+ (10 mM HEPES, 150 mM NaCl, 3 mM EDTA, 0.05% v/v Tween 20, pH 7.4), 20 C, Biacore 8K, ReDCaT SA chip; high values mean tight binding; recombinant protein; protein details: C-terminal TEV site + 6xHis; folded or branched DNA; counted as no binding
T5 sequence (looked up, limits assumed): T1 sequence (looked up, limits assumed) with R44A

[7] = 100 nM protein, recombinant protein, folded or branched DNA
[8] = single-stranded DNA, letters put together from the description
[9] = 100 nM protein, slight preference, folded or branched DNA
[10] = 100 nM protein, folded or branched DNA
[11] = folded or branched DNA, letters put together from the description
[12] = recombinant …, single-stranded DNA, letters put together from the description
[13] = 100 nM protein, recombinant protein, single-stranded DNA, letters put together from the description
[14] = linear, binds but dissociates quickly, single-stranded DNA
[15] = 100 nM protein, run beside RsmE, recombinant protein, folded or branched DNA

ATGGACGTCGCGCAGGAAGCGCAAACCTACCCTACGTCCTCCTGC [RsmY 1-25]
binding result ([1]; folded or branched DNA): binds

CAGGACAGGACAGAGC [Bind_NoHP (linear GGA)]
binding signal ([2]; single-stranded DNA): -9.79 %Rmax

CCGCGCACGGTAGCGCAAAC [FullBind_ACGGT_HP]
binding signal [3, 7]: 0.458 %Rmax
binding signal ([2]; folded or branched DNA): -6.46 %Rmax

CAGGAAAGGACAGAGCACGGA [2Full_bind_NoHP (2 x ACGGA linear)]
binding signal [2, 8]: -13.4 %Rmax

CCGCGCTCGGAAGCGCAAAC [FullBind_TCGGA_HP]
binding signal ([2]; folded or branched DNA): -6.25 %Rmax

CCGCGCAGGGAAGCGCAAACCCTACCCTACGTCCTCCTGC [FullBind_AGGGA_HP]
binding result [1, 9]: binds
binding result [4]: binds

CCGCGCAGTAAGCGCAAACCCTACCCTACGTCCTCCTGC [Bind_GTA_HP]
binding result [1, 10]: binds more weakly

CCGCGCACGGAAGCGCAACGGAAC [Full_2Bind_HP (2 x ACGGA hairpin)]
binding signal [2, 11]: -6.47 %Rmax

CCGCGCACGGTAGCGCAAACCCTACCCTACGTCCTCCTGC [FullBind_ACGGT_HP]
binding result [1, 10]: binds more weakly

AAAGCCCCGCTTCGGCGGGGTTTT [RsmY 95-end]
binding signal [3, 12]: -1.22 %Rmax

CCGCGCAGGCAGCGCAAACCCTACCCTACGTCCTCCTGC [Bind_GGC_HP]
binding result [1, 10]: binds more weakly

CCGCGCACGAAGCGCAAAC [Bind_CGA_HP]
binding signal ([2]; folded or branched DNA): -6.54 %Rmax

CAAGACACCCCAGAGCAGCA [NoBind_NoHP_2]
binding signal [3, 13]: -0.882 %Rmax
binding signal [2, 8]: -8.22 %Rmax

CAGGAACGGACAGAGCCCTACCCTACGTCCTCCTGC [Full_Bind_NoHP (linear ACGGA)]
binding result [1, 14]: binds more weakly

CCGCGCACCGAAGCGCAAACCCTACCCTACGTCCTCCTGC [FullBind_ACCGA_HP]
binding result [1, 10]: binds more weakly

GGGAAAAAATGTGGGCGGGTCATACCGCCCCTTTTTTT [RsmZ 127-end]
binding signal ([3]; recombinant …, single-stranded DNA): 0.954 %Rmax

CCGCGCACCAAGCGCAAAC [NoBind_HP]
binding signal [3, 15]: -5.7 %Rmax
binding signal [3, 7]: 0.606 %Rmax
binding signal ([2]; folded or branched DNA): -6.64 %Rmax
binding signal [5]: -2.17 %Rmax
binding signal [6]: -1.77 %Rmax

CCGCGCACTGAAGCGCAAACCCTACCCTACGTCCTCCTGC [FullBind_ACTGA_HP]
binding result [1, 10]: binds more weakly

CCGCGCAGTAAGCGCAAAC [Bind_GTA_HP]
binding signal [3, 7]: 0.124 %Rmax
binding signal ([2]; folded or branched DNA): -5.98 %Rmax

CCGCGCACGCAAGCGCAAACCCTACCCTACGTCCTCCTGC [FullBind_ACGCA_HP]
binding result [1, 10]: binds more weakly

CCGCGCACGTAAGCGCAAACCCTACCCTACGTCCTCCTGC [FullBind_ACGTA_HP]
binding result [1, 10]: binds more weakly

CAGGACAGGACAGAGCCCTACCCTACGTCCTCCTGC [Bind_NoHP (linear GGA)]
binding result [1, 14]: binds more weakly

CCGCGCACTGAAGCGCAAAC [FullBind_ACTGA_HP]
binding signal ([2]; folded or branched DNA): -6.32 %Rmax

CCGCGCACGGCAGCGCAAACCCTACCCTACGTCCTCCTGC [FullBind_ACGGC_HP]
binding result [1, 10]: binds more weakly

CTTACTTTGGAACTCTCTAAGATCA [RsmZ 1-25]
binding signal [3, 12]: 0.404 %Rmax

CCGCGCATGAAGCGCAAAC [Bind_TGA_HP]
binding signal [3, 7]: 0.288 %Rmax
binding signal ([2]; folded or branched DNA): -5.85 %Rmax

ATGTCAGGGAAACAGTCTGCAAAGC [RsmY 75-99]
binding signal [3, 12]: 0.723 %Rmax

CCGCGCCGGAAGCGCAGGAAC [2Bind_HP (2 x GGA hairpin)]
binding signal [2, 11]: -7.05 %Rmax

CAGGAACGGACAGAGC [Full_Bind_NoHP (linear ACGGA)]
binding signal ([2]; single-stranded DNA): -10.4 %Rmax

CCGCGCACCCAGCGCAAAC [NoBind_HP_2]
binding signal [3, 7]: 0.273 %Rmax
binding signal ([2]; folded or branched DNA): -5.81 %Rmax
binding signal [5]: -2.51 %Rmax
binding signal [6]: -1.89 %Rmax

CAAGGAGACAGAGCAACAGGA [2bind_NoHP (2 x GGA linear)]
binding signal [2, 8]: -13 %Rmax

CCGCGCAGGCAGCGCAAAC [Bind_GGC_HP]
binding signal [3, 7]: -0.383 %Rmax
binding signal ([2]; folded or branched DNA): -5.39 %Rmax

CCGCGCACGTAAGCGCAAAC [FullBind_ACGTA_HP]
binding signal [3, 7]: -0.342 %Rmax
binding signal ([2]; folded or branched DNA): -6.43 %Rmax

CCGCGCATGAAGCGCAAACCCTACCCTACGTCCTCCTGC [Bind_TGA_HP]
binding result [1, 10]: binds more weakly

CCGCGCAGGTAGCGCAAACCCTACCCTACGTCCTCCTGC [Bind_GGT_HP]
binding result [1, 10]: binds more weakly

CCGCGCATGGAAGCGCAAACCCTACCCTACGTCCTCCTGC [FullBind_ATGGA_HP]
binding result [1, 9]: binds
binding result [4]: binds

GCCCTGTGTCCACGGATTGGCACAACCTACCCTACGTCCTCCTGC [RsmZ 26-50]
binding result ([1]; folded or branched DNA): binds

CCGCGCACCAAGCGCAAACCCTACCCTACGTCCTCCTGC [NoBind_HP]
binding result [1, 10]: no binding

CCGCGCACGCAAGCGCAAAC [FullBind_ACGCA_HP]
binding signal [3, 7]: 0.414 %Rmax
binding signal ([2]; folded or branched DNA): -6.03 %Rmax

CCGCGCACGGCAGCGCAAAC [FullBind_ACGGC_HP]
binding signal [3, 7]: 1.4 %Rmax
binding signal ([2]; folded or branched DNA): -5.83 %Rmax

CCGCGCAGCAAGCGCAAACCCTACCCTACGTCCTCCTGC [Bind_GCA_HP]
binding result [1, 10]: binds more weakly

CCGCGCAGGAAGCGCAAAC [Bind_HP (GGA hairpin)]
binding signal ([2]; folded or branched DNA): -6.07 %Rmax

CAAGACACCACAGAGCAGCA [NoBind_NoHP]
binding signal [3, 13]: 0.403 %Rmax
binding signal [2, 8]: -6.95 %Rmax

CCGCGCAGGTAGCGCAAAC [Bind_GGT_HP]
binding signal [3, 7]: 1.16 %Rmax
binding signal ([2]; folded or branched DNA): -5.79 %Rmax

CCGCGCCCGGAAGCGCAAAC [FullBind_CCGGA_HP]
binding signal ([2]; folded or branched DNA): -6.75 %Rmax

CCGCGCACCGAAGCGCAAAC [FullBind_ACCGA_HP]
binding signal [3, 15]: -4.73 %Rmax
binding signal [3, 7]: -1.36 %Rmax
binding signal ([2]; folded or branched DNA): -5.99 %Rmax

CCGCGCACGAAGCGCAAACCCTACCCTACGTCCTCCTGC [Bind_CGA_HP]
binding result [1, 10]: binds more weakly

CCGCGCAGCAAGCGCAAAC [Bind_GCA_HP]
binding signal [3, 7]: -1.27 %Rmax
binding signal ([2]; folded or branched DNA): -6.58 %Rmax
